These are yes or no findings as the source states them, for the method shown. In cells and extracts the contact can be indirect. Some entries that bind do so weakly or less than the wild type. Tags and fused reporters may be left off the sequences shown.
Biological target: RFP-Hrs (UniProt O14964)
Experiment: co-IP; lysates of N2a cells cotransfected with RFP-Hrs and KIF13A- or KIF13B-FRB-Myc; Dynabeads coupled to anti-mCherry antibodies, 4°C, 2 h; lysis buffer 50 mM Tris-Base, 150 mM NaCl, 1% Triton X-100, 0.5% deoxycholic acid; blot probed with Myc and mCherry antibodies; in one panel the cells were treated with control or high K+ Tyrodes solution for 2 h

By UniProt entry, the sequences of proteins in these tests, tags left out.
UniProt O14964: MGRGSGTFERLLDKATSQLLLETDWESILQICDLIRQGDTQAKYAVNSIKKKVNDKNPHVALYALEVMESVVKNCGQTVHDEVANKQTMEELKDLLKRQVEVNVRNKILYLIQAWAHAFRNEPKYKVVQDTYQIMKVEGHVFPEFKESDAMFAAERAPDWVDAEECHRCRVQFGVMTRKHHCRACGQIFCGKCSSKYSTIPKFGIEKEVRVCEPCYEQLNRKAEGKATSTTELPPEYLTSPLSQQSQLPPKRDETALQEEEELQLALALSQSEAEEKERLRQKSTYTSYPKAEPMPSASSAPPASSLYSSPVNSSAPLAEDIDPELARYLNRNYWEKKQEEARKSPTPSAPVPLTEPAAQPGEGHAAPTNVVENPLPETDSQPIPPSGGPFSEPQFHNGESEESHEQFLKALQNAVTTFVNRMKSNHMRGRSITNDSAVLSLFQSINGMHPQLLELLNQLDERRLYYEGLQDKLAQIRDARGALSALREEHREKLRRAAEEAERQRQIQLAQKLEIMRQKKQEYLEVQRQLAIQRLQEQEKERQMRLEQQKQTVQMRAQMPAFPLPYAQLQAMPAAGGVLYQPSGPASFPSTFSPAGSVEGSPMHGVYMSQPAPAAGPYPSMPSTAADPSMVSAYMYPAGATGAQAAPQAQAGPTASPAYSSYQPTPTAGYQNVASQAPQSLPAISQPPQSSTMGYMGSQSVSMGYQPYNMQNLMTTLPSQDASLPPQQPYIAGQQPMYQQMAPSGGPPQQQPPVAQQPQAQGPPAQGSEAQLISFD

binding: binds
B1: KIF13A-FRB-Myc (pBa-FRB-3myc-KIF13A tail 361–1749) (domain or fragment, UniProt Q9EQW7 361-1749)
chain: DPNAKVIRELREEVEKLREQLSKAEAMKPPELKEKLEESEKLIKELTVTWEEKLRKTEAIAQERQRQLESMGISLETSGIKVGDDKCYLVNLNADPALNELLVYYLKDHTRVGADTSQDIQLFGIGIQPEHCEIDIAADGDITLTPKENARSCVNGTLVCNTTQLWHGDRILWGNNHFFRINLPKRKRRDWLKDFERETSSAEHDLDAASEASSEPDYNYEFAQMEVIMKTLNSNDPVQNVVQVLEKQYLEEKRTALEEQRLMYERELEQLRQQLSPERQPPSSASDRLAYSSQTAQQKVTQWAEERDELFRQSLAKLREQLVKANTLVREANFLAEEMSKLTDYQVTLQIPAANLSANRKRGAIVSEPAIQARRKGKGTQVWTIEKLENKLIDMRDLYQEWKENVPEAKRLYGKRGDPFYEAQENHNLIGVANVFLECLFCDVKLQYAVPIISQQGEVAGRLHVEVTRITGTIPERMAEDDSSENSSESGSLEVVDSSGEVIHRVKKLTCRVIIKEATGLPISLSNFVFCQYTFWDQCESTVAAPVVDPDVPSPQSKDAQYTVTFSHCKDYVVTVTEEFLEFISDGALAIEVWGHRCAGNGSPIWEVDSLHAKTRTLHDRWNEVTRRIEVWISILELNELGDYAAVELHQAKDVNTGGVFQLRQGHSRRVQVTVKPVQHSGTLPLMVEAILSVSIGCVTARSTKLQRGLDSYQEEDLNCVRERWSDALIKRREYLDEQIKKVSNKKEKTEDDMEREARLVEQWVGLTEERNAVLVPAPGSGIPGAPADWVPPPGMETHIPVLFLDLNADDLSANEQLVGPHASGVNSILPKEHGSQFFYLPIIKHSDDEVSATASWDSSVHDSLHLNRVTPQNERIYLIVKTTVQLSHPAAMELVLRKRIAANIYNKQSFTQSLKRRISLINICYSCGVTYEIVSNIPKATEEIEDRETLALLAARSENEGTLDGETYIEKYTRGVLQVENILSLERLRQAVTVKEALSTKARHIRRSLSTPNVHNVSSSRPDLSGFDEDDKGWPENQLDVSDYSSSYQDVACYGTLPRDSPRRSKEGCPSENPHALTVSPFKAFSPQPPKFFKPLMPVKEEHKKRLALEARPLLSQEDSEEEENELEALSRKLMLTQPYVPVEFADFSVYNASLENREWSSSKADLTDSRALEKAVSRSPTTSSLTSGYFSHSASNATLSDMAVPSSDSSDQLAVSTKEVECAEPPGPSLAPDVRRASNQELTEVGRGSGKDETIAVPLEENSALPKGTPSPQSIPEESSRMPCRTASCSELDVGPSKDGHQAREFCPGEVTIEHTTNILEDHSFTEFMGVSDGKDFDGLADCSVGEPSRRRALTNETDHKGIPERPPDADRLHPKIENDQEATATR
